The source gives many values for each of these; only a part stands here.
Tested on: subjects with moderately to severely active RA who have an inadequate response to methotrexate (MTX)
Assay: Study 1 (add-on to MTX) - Creatinine levels
Assay type: in vivo, human
Procedure: Double-blind, placebo-controlled add on study in subjects with moderately to severely active RA who have an inadequate response to methotrexate (MTX) (oral or parenteral).
595 subjects randomized to one of 6 dose regimens of Compound 1 (dosed as [Compound 1:HCl:3H2O]) (3 dose levels administered either once or twice daily) or placebo on top of each subject's stable dose of MTX.
Compound 1 (dosed as [Compound 1:HCl:3H2O]) is dosed for twelve weeks once daily (q.d.) (50 mg, 100 mg or 200 mg) or twice daily (b.i.d.) (25 mg, 50 mg or 100 mg); or placebo.
At Week 12, the subjects on placebo who have not achieved 20% improvement in swollen joint count (SJC66) and tender joint count (TJC68) are re-randomized automatically to receive Compound 1 (dosed as a [Compound 1:HCl:3H2O]) either at 100 mg q.d. or 50 mg b.i.d. doses in a blinded fashion; subjects on 50 mg q.d. who have not achieved 20% improvement in SJC66 and TJC68 will be assigned to 100 mg q.d. and subjects on 25 mg b.i.d. that have not achieved a 20% improvement in SJC66 and TJC68 will be assigned to 50 mg b.i.d. Subjects who switch treatment at week 12 are handled as if they discontinued at week 12 for the purpose of statistical analysis, whereas subjects in the other groups will maintain their randomized treatment until Week 24.
Creatinine levels determination is available at Quest Diagnostics, Clinical Trials, Quest House, 125-135 Staines Road, Hounslow, Middlesex, TW3 3JB, United Kingdom under Catalogue n# 82565. For Study 3, the data are obtained at BARC Europe, 3B,Industrie Park, Zwijnaarde, B-9052 Ghent, Belgium.
The Enzymatic method is based on the determination of sarcosine after conversion of creatinine with the aid of creatininase, creatinase, and sarcosine oxidase. The liberated hydrogen peroxide reacts with 4-aminophenazone and HTIB to form a quinone imine chromogen. The reaction is catalyzed by peroxidase. The color intensity is directly proportional to concentration of creatinine present and can be measured photometrically.

[1] = continued 100 mg q.d. (N = 85), week 8
[2] = continued 100 mg q.d. (N = 85), week 12
[3] = continued 100 mg q.d. (N = 85), week 16
[4] = continued 100 mg q.d. (N = 85), week 20
[5] = continued 100 mg q.d. (N = 85), week 24
[6] = continued 200 mg q.d. (N = 86), week 0
[7] = continued 200 mg q.d. (N = 86), week 1
[8] = continued 200 mg q.d. (N = 86), week 2
[9] = continued 200 mg q.d. (N = 86), week 4
[10] = continued 200 mg q.d. (N = 86), week 8
[11] = continued 200 mg q.d. (N = 86), week 12
[12] = continued 200 mg q.d. (N = 86), week 16
[13] = continued 200 mg q.d. (N = 86), week 20
[14] = continued 200 mg q.d. (N = 86), week 24
[15] = increased from 25 mg b.i.d. to 50 mg b.i.d. at 12 weeks (N = 17), week 0
[16] = increased from 25 mg b.i.d. to 50 mg b.i.d. at 12 weeks (N = 17), week 1
[17] = increased from 25 mg b.i.d. to 50 mg b.i.d. at 12 weeks (N = 17), week 2
[18] = increased from 25 mg b.i.d. to 50 mg b.i.d. at 12 weeks (N = 17), week 4
[19] = increased from 25 mg b.i.d. to 50 mg b.i.d. at 12 weeks (N = 17), week 8
[20] = increased from 25 mg b.i.d. to 50 mg b.i.d. at 12 weeks (N = 17), week 12
[21] = increased from 25 mg b.i.d. to 50 mg b.i.d. at 12 weeks (N = 17), week 16
[22] = increased from 25 mg b.i.d. to 50 mg b.i.d. at 12 weeks (N = 17), week 20
[23] = increased from 25 mg b.i.d. to 50 mg b.i.d. at 12 weeks (N = 17), week 24
[24] = increased from 50 mg q.d. to 100 mg q.d. at 12 weeks (N = 19), week 0
[25] = increased from 50 mg q.d. to 100 mg q.d. at 12 weeks (N = 19), week 1
[26] = increased from 50 mg q.d. to 100 mg q.d. at 12 weeks (N = 19), week 2
[27] = increased from 50 mg q.d. to 100 mg q.d. at 12 weeks (N = 19), week 4
[28] = increased from 50 mg q.d. to 100 mg q.d. at 12 weeks (N = 19), week 8
[29] = increased from 50 mg q.d. to 100 mg q.d. at 12 weeks (N = 19), week 12
[30] = increased from 50 mg q.d. to 100 mg q.d. at 12 weeks (N = 19), week 16
[31] = increased from 50 mg q.d. to 100 mg q.d. at 12 weeks (N = 19), week 20
[32] = increased from 50 mg q.d. to 100 mg q.d. at 12 weeks (N = 19), week 24
[33] = placebo switched to 100 mg q.d. at week 12 (N = 15), week 16
[34] = placebo switched to 100 mg q.d. at week 12 (N = 15), week 20
[35] = placebo switched to 100 mg q.d. at week 12 (N = 15), week 24

O=C(Nc1nc2cccc(-c3ccc(CN4CCS(=O)(=O)CC4)cc3)n2n1)C1CC1 [Compound 1, cyclopropanecarboxylic acid {5-[4-(1,1-dioxo-thiomorpholin-4-ylmethyl)-phenyl]-[1,2,4]triazolo[1,5-a]pyridin-2-yl}-amide]
Creatinine Mean percentage CFB (continued 100 mg q.d. (N = 85), week 4): 3.5% | Creatinine Mean CFB [1]: 1.9 µmol/L | Creatinine Mean percentage CFB [1]: 3.8% | Creatinine Mean CFB [2]: 3.8 µmol/L | Creatinine Mean percentage CFB [2]: 6.8% | Creatinine Mean CFB [3]: 2.3 µmol/L | Creatinine Mean percentage CFB [3]: 4.8% | Creatinine Mean CFB [4]: 2.9 µmol/L | Creatinine Mean percentage CFB [4]: 5.4% | Creatinine Mean CFB [5]: 1.5 µmol/L | Creatinine Mean percentage CFB [5]: 3.8% | Creatinine Mean CFB [6]: 0.0 µmol/L | Creatinine Mean percentage CFB [6]: 0.0% | Creatinine Mean CFB [7]: 3.0 µmol/L | Creatinine Mean percentage CFB [7]: 5.7% | Creatinine Mean CFB [8]: 3.1 µmol/L | Creatinine Mean percentage CFB [8]: 5.8% | Creatinine Mean CFB [9]: 3.7 µmol/L | Creatinine Mean percentage CFB [9]: 7.0% | Creatinine Mean CFB [10]: 4.1 µmol/L | Creatinine Mean percentage CFB [10]: 7.4% | Creatinine Mean CFB [11]: 4.1 µmol/L | Creatinine Mean percentage CFB [11]: 7.7% | Creatinine Mean CFB [12]: 4.8 µmol/L | Creatinine Mean percentage CFB [12]: 8.7% | Creatinine Mean CFB [13]: 4.6 µmol/L | Creatinine Mean percentage CFB [13]: 8.5% | Creatinine Mean CFB [14]: 3.2 µmol/L | Creatinine Mean percentage CFB [14]: 6.0% | Creatinine Mean CFB [15]: 0.0 µmol/L | Creatinine Mean percentage CFB [15]: 0.0% | Creatinine Mean CFB [16]: 0.4 µmol/L | Creatinine Mean percentage CFB [16]: 0.8% | Creatinine Mean CFB [17]: 0.2 µmol/L | Creatinine Mean percentage CFB [17]: 0.3% | Creatinine Mean CFB [18]: -0.6 µmol/L | Creatinine Mean percentage CFB [18]: −0.4% | Creatinine Mean CFB [19]: 1.8 µmol/L | Creatinine Mean percentage CFB [19]: 3.9% | Creatinine Mean CFB [20]: 0.2 µmol/L | Creatinine Mean percentage CFB [20]: 0.4% | Creatinine Mean CFB [21]: 3.8 µmol/L | Creatinine Mean percentage CFB [21]: 7.6% | Creatinine Mean CFB [22]: 1.7 µmol/L | Creatinine Mean percentage CFB [22]: 4.8% | Creatinine Mean CFB [23]: 0.5 µmol/L | Creatinine Mean percentage CFB [23]: 1.4% | Creatinine Mean CFB [24]: 0.0 µmol/L | Creatinine Mean percentage CFB [24]: 0.0% | Creatinine Mean CFB [25]: 0.7 µmol/L | Creatinine Mean percentage CFB [25]: 1.5% | Creatinine Mean CFB [26]: 1.8 µmol/L | Creatinine Mean percentage CFB [26]: 3.0% | Creatinine Mean CFB [27]: 2.5 µmol/L | Creatinine Mean percentage CFB [27]: 3.9% | Creatinine Mean CFB [28]: 2.6 µmol/L | Creatinine Mean percentage CFB [28]: 4.1% | Creatinine Mean CFB [29]: 0.6 µmol/L | Creatinine Mean percentage CFB [29]: 1.9% | Creatinine Mean CFB [30]: 4.5 µmol/L | Creatinine Mean percentage CFB [30]: 8.0% | Creatinine Mean CFB [31]: 2.9 µmol/L | Creatinine Mean percentage CFB [31]: 5.2% | Creatinine Mean CFB [32]: 2.2 µmol/L | Creatinine Mean percentage CFB [32]: 3.7% | Creatinine Mean CFB [33]: 3.0 µmol/L | Creatinine Mean percentage CFB [33]: 6.4% | Creatinine Mean CFB [34]: 1.9 µmol/L | Creatinine Mean percentage CFB [34]: 4.3% | Creatinine Mean CFB [35]: 3.0 µmol/L | Creatinine Mean percentage CFB [35]: 5.9%
